Results reported in US20130172342A1, “BENZIMIDAZOLE DERIVATIVES AS SELECTIVE BLOCKERS OF PERSISTENT SODIUM CURRENT” (Allergan, Inc., priority 2011, published 2013).
Some of these results come from one statement about several compounds together.

Test system: Nav1.3 or Nav1.6 channels
Assay: gigohm-seal manual patch-clamp (MPC) in HEK cells stably transfected with sodium channels
Format: cell-based
Details: HEK cells expressing Nav1.3 or Nav1.6, FIG. 1, read-out: effective dose for blocking the transient current
Experimental: Nav1.3 or Nav1.6 channels were expressed in HEK cells, currents were measured using standard MPC electrophysiological techniques. Data are summarized from at least 3 experiments for each concentration tested and were normalized to the control currents before compound addition. Data are presented as the mean and standard error of the mean (n=3) of the percentage of the control current observed at steady state after compound addition.
Therefore, the efficacy and selectivity of the identified persistent current antagonists were verified using conventional gigohm-seal manual patch-clamp (MPC).
MPC experiments were conducted on human embroynic kidney (HEK) cells stably transfected with sodium channels were plated on coverslips. […] After application of the compound, current amplitude was monitored until equilibrium was established. The data recorded at equilibrium was normalized to the control current measured during perfusion with control buffer in the absence of a test compound. Adequate solution perfusion and gigohm seal stability were monitored throughout the experiment. The compound's antagonism of persistent or transient sodium currents is expressed as the IC5O of block for the respective current (see Table 1). Selectivity for block of the persistent current was calculated as the ratio of the IC5O for the transient current divided by the IC5O for the persistent current. […]

| SMILES | IC50 |
| --- | --- |
| Cc1cccc(C)c1OCCn1c(CN2CCCCC2)nc2ccccc21 [Compound #1, 1-[2-(2,6-Dimethylphenoxy)ethyl]-2-piperidin-1-ylmethyl-1H-benzimidazole] | > 30 µM |
| Cc1ccc(C(C)C)c(OCCn2c(CN3CCOCC3)nc3ccccc32)c1 [Compound A] | > 30 µM |
